Assay results from publication PMC4405579.
No constants are given. Whether binding was seen depends on the method and setting. In cells and extracts the contact can be indirect. Some entries that bind do so weakly or less than the wild type.

Chains of the proteins cited; added tags and fusions are not shown. Lines headed by an entry give the natural chain unless they say otherwise; changes in a name come on top. A line that says so, or that is headed by a name, gives the form on record, which may keep a tag or linker. Residues count along the entry.
Flag-tagged full-length CREB, phosphorylated (S133) (P16220, form named): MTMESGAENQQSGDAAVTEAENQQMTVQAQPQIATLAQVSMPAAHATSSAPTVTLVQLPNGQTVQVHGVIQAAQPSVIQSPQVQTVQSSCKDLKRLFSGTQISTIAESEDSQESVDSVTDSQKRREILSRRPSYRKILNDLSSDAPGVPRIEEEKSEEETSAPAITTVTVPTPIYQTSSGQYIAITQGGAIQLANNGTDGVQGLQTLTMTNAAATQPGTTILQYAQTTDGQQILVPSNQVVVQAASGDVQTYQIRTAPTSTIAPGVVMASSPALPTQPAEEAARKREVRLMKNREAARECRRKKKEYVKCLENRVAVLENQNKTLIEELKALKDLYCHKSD
UniProt Q92793, residues 586-666: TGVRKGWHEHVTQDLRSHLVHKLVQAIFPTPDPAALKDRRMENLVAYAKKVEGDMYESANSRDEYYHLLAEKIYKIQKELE

Columns and labels:
[1] = target: Flag-tagged full-length CREB, phosphorylated (S133) (UniProt P16220); assay: co-IP; as a3, but cells treated with NASTRp; immunoprecipitation with anti-Phospho-CREB (S133) antibody
[2] = target: Flag-tagged full-length CREB, phosphorylated (S133) (UniProt P16220); assay: co-IP; Flag-CREB1 stably expressing 293T cells transfected with HA-KIX; forskolin; immunoprecipitation with anti-Phospho-CREB (S133) antibody, western blot

- binding [2]: binds
Substance: HA-KIX (CBP; amino acids 586-666) (from UniProt Q92793 586-666) (domain or fragment)
- binding [1]: no binding (condition: cells treated with NASTRp)
